The list does not hold the whole screen: it gathers tests that were run many times, whatever their T/C, doses with no T/C, and many T/C values between a quarter and a half above the control. Other doses and runs of a compound stand elsewhere. T/C is the treated group as % of the vehicle group. Schedule codes are those of the source, read here as Q, the interval in days (D) or hours (H), X, the number of doses. Some entries were tested several times; their values stand side by side, smallest first. Some schedules carry Z or #; the key to these is not given. Some T/C values are followed by the survivors on the day toxicity was checked, most often the fifth; where none is given, no animal had died by that day. Counts like (3×) give the number of equal values in this list. Some doses have a count of surviving animals in place of a T/C: the source files T/C as zero there, which appears to mark a toxic dose or a test without result, not a measured value. Survivors were counted at the toxicity check, usually on the fifth day, unless a day is given; later deaths do not show. Some molecules as drawn cover several salts, stereoisomers or complexes of the source; a dose is that of the sample tested. Numbered stars: 1 amine (or outer) side, 2 acyl side, 3 side chain; on linkers, the order of the positions; unused ones are H or OH. Bridge positions count the residues as written; N and C are the ends. Square brackets hold non-standard residues; d marks the D form. Peptide text beside a SMILES is read from it. * marks the point of attachment. X1 = CC(C)C(C)C(C(=O)[*:2])N(C)[*:1]; Picolinoyl(3-OH) = O=C(c1ncccc1O)*; NMePhg = CN[CH](C(=O)O)c1ccccc1; Hyp = O=C(O)[CH]1C[CH](O)CN1; Sar = CNCC(=O)O

The subject of this test is Swiss mice, Sarcoma 180 sc, mean tumor weight T/C. Nature of the test: NCI In Vivo Anticancer Drug Screen. Data for tumor model Sarcoma 180 (subcutaneous) in Swiss mice. As to conditions: T/C endpoint: mean tumor weight, higher T/C = larger tumour; for T/C: evaluated on day 8. Put shortly:
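Mice bearing transplanted tumors were treated with compound, and survival or tumor size was measured. Values are expressed as the treated-group measurement (T) divided by the vehicle-treated control measurement (C).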

Where [1] appears, read: dose: 250.0 mg/kg/injection, schedule: Q01DX007 (ip), vehicle: carboxymethylcellulose (CMC).
[2] abbreviates: dose: 150.0 mg/kg/injection, schedule: Q#A X014 (ip), vehicle: saline.
Where [3] appears, read: dose: 500.0 mg/kg/injection, schedule: Q01DX007 (ip), vehicle: carboxymethylcellulose (CMC).
Setting [4] is: dose: 1000.0 mg/kg/injection, schedule: Q01DX007 (sc), vehicle: steroid suspending solution.

As to `O=CNc1c(Cl)c(Cl)c2c(c1Cl)Cc1cc(Cl)ccc1-2`, the survivor count is, setting by setting: (dose: 60.0 mg/kg/injection, schedule: Q01DX007 (ip), vehicle: carboxymethylcellulose (CMC)) 2 of 6; (dose: 110.0 mg/kg/injection, schedule: Q01DX007 (ip), vehicle: carboxymethylcellulose (CMC)) 2 of 6; under setting [1], 3 of 6; (dose: 375.0 mg/kg/injection, schedule: Q01DX007 (ip), vehicle: carboxymethylcellulose (CMC)) 1 of 6.
`CNC=O`: the T/C runs as follows: (dose: 65.0 mg/kg/injection, schedule: Q#A X014 (ip), vehicle: saline, list 1 of 4) 9, 11 [4 of 6 alive], 14, 16 [5 of 6 alive], 18 [4 of 6 alive], 18 [5 of 6 alive], 19 [4 of 6 alive], 20, 21 [4 of 6 alive], 22 (2×), 23 (2×), 23 [4 of 6 alive], 24 [5 of 6 alive], 25, 26, 27 [4 of 6 alive] (2×), 28, 28 [5 of 6 alive], 29, 29 [5 of 6 alive], 30 [4 of 6 alive], 31 [5 of 6 alive], 32 (2×), 33 (2×), 34, 34 [5 of 6 alive], 35, 36, 36 [4 of 6 alive], 37 [5 of 6 alive] (2×), 39 (2×), 40 [5 of 6 alive], 41, 42 [4 of 6 alive] (2×), 44, 45, 47, 50, 58, 63 % of control; (dose: 65.0 mg/kg/injection, schedule: Q#A X014 (ip), vehicle: saline, list 2 of 4) 5, 10, 12, 15, 16, 18, 19 [5 of 6 alive], 20 [4 of 6 alive], 21, 21 [5 of 6 alive], 22, 22 [4 of 6 alive], 23 (3×), 25 (2×), 26 [5 of 6 alive], 27, 27 [5 of 6 alive], 28, 28 [4 of 6 alive], 29, 30, 31 [5 of 6 alive], 32 (2×), 33 (2×), 34, 34 [4 of 6 alive], 34 [5 of 6 alive], 35 [5 of 6 alive], 36, 36 [4 of 6 alive], 37 [4 of 6 alive], 38, 39 [5 of 6 alive] (2×), 40 [5 of 6 alive], 41, 42 (2×), 44, 45, 48, 50, 58, 73 % of control; (dose: 65.0 mg/kg/injection, schedule: Q#A X014 (ip), vehicle: saline, list 3 of 4) 7, 10, 13, 15 [5 of 6 alive], 17, 18, 19, 20, 21, 21 [4 of 6 alive], 22, 22 [4 of 6 alive], 23, 23 [5 of 6 alive], 24, 25, 26 (2×), 27 [4 of 6 alive], 28 (2×), 28 [4 of 6 alive], 29, 30 [4 of 6 alive], 31, 32, 32 [5 of 6 alive], 33 (2×), 34 (3×), 35 [4 of 6 alive], 36, 37 (2×), 38, 39, 39 [5 of 6 alive], 40 [5 of 6 alive], 42, 42 [4 of 6 alive], 43, 44, 46, 48 [4 of 6 alive], 52, 60 [5 of 6 alive], 76 % of control; (dose: 65.0 mg/kg/injection, schedule: Q#A X014 (ip), vehicle: saline, list 4 of 4) 9, 10 [5 of 6 alive], 13 [4 of 6 alive], 16 [4 of 6 alive], 17, 18, 19 [5 of 6 alive], 20, 21, 22, 22 [5 of 6 alive] (2×), 23 (2×), 24, 25 [5 of 6 alive], 26, 26 [5 of 6 alive], 27, 28 [4 of 6 alive], 28 [5 of 6 alive], 29, 29 [4 of 6 alive], 30, 31, 32 (2×), 33 (2×), 34 (2×), 35 [5 of 6 alive], 36 [4 of 6 alive], 36 [5 of 6 alive], 37 (2×), 38 [5 of 6 alive], 39 (2×), 41 [4 of 6 alive], 42 (2×), 43, 44, 46 [5 of 6 alive], 49, 55 [4 of 6 alive], 61, 87 % of control; under setting [2], 1, 1 [4 of 6 alive], 2 [5 of 6 alive], 3 [5 of 6 alive] (2×), 4 [4 of 6 alive], 4 [5 of 6 alive], 5 [4 of 6 alive] (4×), 5 [5 of 6 alive] (2×), 6, 6 [4 of 6 alive], 7 (2×), 7 [5 of 6 alive], 8, 8 [4 of 6 alive] (3×), 8 [5 of 6 alive], 9 [4 of 6 alive] (2×), 10 [4 of 6 alive] (6×), 10 [5 of 6 alive], 11 [4 of 6 alive] (2×), 12, 12 [5 of 6 alive], 13, 13 [4 of 6 alive] (2×), 13 [5 of 6 alive], 14, 15, 17 [5 of 6 alive] (2×), 18, 19 (3×), 23, 24 [4 of 6 alive], 33 [4 of 6 alive], 39 % of control [4 of 6 alive]. In addition, the survivor count is given as 1 of 6, 2 of 6, 3 of 6 (dose: 65.0 mg/kg/injection, schedule: Q#A X014 (ip), vehicle: saline); 1 of 6, 2 of 6, 3 of 6 under setting [2]; 3 of 6 (dose: 325.0 mg/kg/injection, schedule: Q01DX007 (ip), vehicle: saline).
Turning to `Clc1ccc(C[P+](c2ccccc2)(c2ccccc2)c2ccccc2)cc1Cl`, the survivor count is 2 of 6 (dose: 8.0 mg/kg/injection, schedule: Q01DX007 (ip), vehicle: carboxymethylcellulose (CMC)) and 1 of 6 (dose: 12.0 mg/kg/injection, schedule: Q01DX007 (ip), vehicle: carboxymethylcellulose (CMC)).
Regarding `CCc1nc(N)nc(N)c1-c1ccc(Cl)c(Cl)c1.O.O.[Zn]`, the survivor count (dose: 18.0 mg/kg/injection, schedule: Q01DX007 (ip), vehicle: carboxymethylcellulose (CMC)) was 3 of 6.
As to `NC(Cc1cccs1)C(=O)O` (stereo not drawn), the T/C under setting [3] was 132 % of control.
Turning to `O=C(Nc1ccc([N+](=O)[O-])cc1)Nc1ccc([N+](=O)[O-])cc1` (tested in a mixture with another compound), the survivor count by setting is: (dose: 83.5 mg/kg/injection, schedule: Q#A X014 (ip), vehicle: methylcellulose (MC)) 2 of 6; (dose: 125.0 mg/kg/injection, schedule: Q#A X014 (ip), vehicle: methylcellulose (MC)) 3 of 6; (dose: 250.0 mg/kg/injection, schedule: Q#A X014 (ip), vehicle: methylcellulose (MC)) 2 of 6.
Take `CC(C)CC1NC(=O)C(NC(=O)c2ncccc2O)C(C)OC(=O)C(c2ccccc2)N(C)C(=O)C(C)NC(=O)C(C(C)C(C)C)N(C)C(=O)CN(C)C(=O)C2CC(O)CN2C1=O` (stereo not drawn) ({Picolinoyl(3-OH)}-TL[Hyp][Sar][X1]A[NMePhg]; ester 1-C; configuration not given here): the T/C (dose: 12.5 mg/kg/injection, schedule: Q01DX007 (ip), vehicle: carboxymethylcellulose (CMC)) was 139 % of control and the T/C (dose: 150.0 mg/kg/injection, schedule: Q01DX007 (ip), vehicle: carboxymethylcellulose (CMC)) is 125 % of control.
`O=C(Nc1ccc(C2=NCCCN2)cc1)c1ccc(NC(=O)c2ccc(C3=NCCCN3)cc2)cc1`: the survivor count is, setting by setting: (dose: 4.0 mg/kg/injection, schedule: Q01DX007 (ip), vehicle: carboxymethylcellulose (CMC)) 3 of 6; (dose: 32.0 mg/kg/injection, schedule: Q01DX007 (ip), vehicle: carboxymethylcellulose (CMC)) 0 of 6; (dose: 62.5 mg/kg/injection, schedule: Q01DX007 (ip), vehicle: carboxymethylcellulose (CMC)) 0 of 6; (dose: 125.0 mg/kg/injection, schedule: Q01DX007 (ip), vehicle: carboxymethylcellulose (CMC)) 0 of 6; under setting [1], 0 of 6; under setting [3], 0 of 6.
Take `CC(=O)OCC(=O)C1(O)C(C)CC2C3C=C(C)C4=Cc5c(cnn5-c5ccccc5)CC4(C)C3C(O)CC21C` (stereo not drawn): the T/C by setting is: (dose: 0.11 mg/kg/injection, schedule: Q01DX007 (sc), vehicle: steroid suspending solution) 134 % of control; (dose: 0.25 mg/kg/injection, schedule: Q01DX007 (sc), vehicle: steroid suspending solution) 131 % of control; (dose: 0.37 mg/kg/injection, schedule: Q01DX007 (sc), vehicle: steroid suspending solution) 139 % of control. The survivor count is listed as 3 of 6 (dose: 2.0 mg/kg/injection, schedule: Q01DX007 (sc), vehicle: steroid suspending solution); 3 of 6 (dose: 16.0 mg/kg/injection, schedule: Q01DX007 (sc), vehicle: steroid suspending solution); 2 of 6 (dose: 32.0 mg/kg/injection, schedule: Q01DX007 (sc), vehicle: steroid suspending solution).
For `CCCN(C)/N=N/c1nc[nH]c1C(N)=O`, under “dose: 91.0 mg/kg/injection, schedule: Q01DX007 (ip), vehicle: carboxymethylcellulose (CMC)”, the survivor count was 3 of 6.
Consider `c1ccc2nc3c(nc2c1)[nH]c1ccccc13`, for which the survivor count under setting [3] is on record as 3 of 6.
For `O=C1c2cc(Cl)ccc2-c2c(Cl)cc(Cl)cc21`, the survivor count runs as follows: (dose: 75.0 mg/kg/injection, schedule: Q01DX007 (ip), vehicle: methylcellulose (MC)) 2 of 6; (dose: 150.0 mg/kg/injection, schedule: Q01DX007 (ip), vehicle: methylcellulose (MC)) 3 of 6; (dose: 500.0 mg/kg/injection, schedule: Q01DX007 (ip), vehicle: other) 3 of 6; (dose: 750.0 mg/kg/injection, schedule: Q01DX007 (ip), vehicle: carboxymethylcellulose (CMC)) 3 of 6.
In the case of `C[C@]12C=CC(=O)C=C1CC[C@@H]1[C@@H]2CC[C@]2(C)OC(=O)CC[C@@H]12`, the T/C (dose: 125.0 mg/kg/injection, schedule: Q01DX007 (sc), vehicle: steroid suspending solution) was 135 and 139 % of control. Under setting [4], the T/C was 139 % of control [8 of 10 alive] and the survivor count is 5 of 10.
Regarding `Nc1ccc(C(=O)O)c(O)c1`, the survivor count (dose: 767.0 mg/kg/injection, schedule: Q01DX007 (ip), vehicle: carboxymethylcellulose (CMC)) is listed as 1 of 10.

The values are drawn from PubChem BioAssay AID342 (DTP/NCI, 2004).
